# In publication PMC5735166:
# Tested on: GST-VANC21
# Assay: EMSA
# Settings: 15 mM Tris-HCl pH 7.5, 300 mM NaCl, 3 mM MgCl2, 0.04% Triton X, 4% glycerol, 0.5 mM DTT, 30 ng poly:IC, 15 ul, 4 C 30 min; 0.15 pmol 32P-dsDNA, ~2.5 ug GST-VANC21; recombinant protein; protein details: N-terminal GST; label: 32P 5' end
row,Sequence,binding result
1,AAATTTAGTTAAACCTTAGCATTACGCGATATTACCAATT (double strand) [probe 7*],binds more weakly
2,AAATTTAGTTAAACCTTAGTATTACGCGATATTACCAATT (double strand) [probe 7],binds
3,AACGGCACAAACGACTGCGACGGCGATGGCAACGACAGCA (double strand) [probe 5],binds more weakly
4,AATGTTTAAATAGCACCAGCATTACTTAGACACGTAGTAT (double strand) [probe 1*],binds more weakly
5,AATGTTTAAATAGCACCAGTATTACTTAGACACGTAGTAT (double strand) [probe 1],binds
6,AATTCCCCGTAATTACCAGCATTACACAGATACTCCTATT (double strand) [probe 2*],binds more weakly
7,AATTCCCCGTAATTACCAGTATTACACAGATACTCCTATT (double strand) [probe 2],binds
8,AGATACTTCGGAATTGGTTTTCATGACGGACAGAAATGCA (double strand) [probe 4],binds more weakly
9,ATCCATAACACCAACTTAGCATTACCAGTAGTACTAATAT (double strand) [probe 6*],binds more weakly
10,ATCCATAACACCAACTTAGTATTACCAGTAGTACTAATAT (double strand) [probe 6],binds
11,ATTTCCCTTGTATTCTCAGCATTATCGTTAAATCCTAGTA (double strand) [probe 3*],binds more weakly
12,ATTTCCCTTGTATTCTCAGTATTATCGTTAAATCCTAGTA (double strand) [probe 3],binds

# Tested on: VANC6 (GST removed) (Arabidopsis thaliana (ddm1-1 cDNA))
# Assay: EMSA
# Settings: 15 mM Tris-HCl pH 7.5, 300 mM NaCl, 3 mM MgCl2, 0.04% Triton X, 4% glycerol, 0.5 mM DTT, 30 ng poly:IC, 15 ul, 4 C 30 min; 0.15 pmol 32P-dsDNA, ~2.5 ug GST-VANC21; recombinant protein; label: 32P 5' end
row,Sequence,binding result
1,GTAGCTAAGTTGTCCCAGTTGGCCGGTCGATACACATAA (double strand) [Supp Fig 12 probe 2],binds

# Tested on: GST-VANC21
# Assay: competition with a labelled probe
# Settings: unlabeled competitor; 15 mM Tris-HCl pH 7.5, 300 mM NaCl, 3 mM MgCl2, 0.04% Triton X, 4% glycerol, 0.5 mM DTT, 30 ng poly:IC, 15 ul, 4 C 30 min; 0.15 pmol 32P-dsDNA, ~2.5 ug GST-VANC21; recombinant protein; protein details: N-terminal GST; label: 32P 5' end
row,Sequence,binding result
1,AATGTTTAAATAGCACCAGTATTACTTAGACACGTAGTAT (double strand) [probe 1],binds
2,AATTCCCCGTAATTACCAGTATTACACAGATACTCCTATT (double strand) [probe 2],binds

# Construct, isoform or probe ends are uncertain for at least one entry. For part of these data: Weaker means in comparison with the reference protein, sequence or condition of that experiment. For part of these data: At least one verdict was read from the data and is not stated in words by the source.
